Results taken from the NIST ThermoML archive (doi:10.1021/je201140q).
± gives the expanded uncertainty stated by the source.

Conditions: 298.15 K; 101.3 kPa; Liquid; Vibrating tube method

mass density: 785.11 ± 0.12 kg/m3
Compound: CCO [ethanol]
